Test results from article PMC12040169 (PLOS Biology, 2025).
The other results are listed elsewhere or left out.

system: T1, CTL2-GFP (C. trachomatis L2/434/Bu, GFP-expressing); parameters: species or system HeLa; Intracellular C. trachomatis growth in HeLa cells, bulk GFP fluorescence relative to DMSO; conditions: bulk GFP, single well; 28.5 h, 10 µM; inhibitor
T1 construct: L2/434/Bu, GFP-expressing

Compound	% of control remaining
Nc1nc(N)c(Cc2ccc(Cl)cc2Cl)c(N)n1 [CBK009425]	124.001%
FC(F)(F)c1ccc(OCc2ccc(Cl)c(Cl)c2)nc1 [CBK115831]	219.985%
Clc1cccc(-c2cn3ccnc3c(NCc3cccnc3)n2)c1 [CBK066237]	91.5236%
C=CCOc1ccc2ccccc2c1CNc1nc[nH]n1 [CBK267296]	149.023%
CC(=O)N1CC[C@H]2NC(=O)CNC(=O)C3(CCCC[C@H]2C1)CCN(C(=O)CC1CCOCC1)CC3 [CBK292030]	103.753%
CC12CCC(C(=O)Nc3ccccc3)(OC1=O)C2(C)C (stereo not drawn) [CBK018129]	64.6221%
CNCc1cc(Br)ccc1OC [CBK027857]	117.556%
COc1ccc(C(C)C)cc1-c1cncc(NCc2ccc3c(c2)OCO3)n1 [CBK065348]	106.004%
N#CCSc1nnc(NC(=O)Nc2ccccc2)s1 [CBK028792]	140.128%
Cc1nnc(SCC(=O)Nc2ccc(CN3CCOCC3)cc2)n1C [CBK306092]	66.288%
O=c1ccc2ccc(-c3ccc(OC(F)(F)F)cc3)nc2[nH]1 [CBK073720]	64.0203%
Cc1ccc2nc(COC(=O)c3ccc(Cn4nnc5ccccc54)cc3)cn2c1 [CBK297923]	129.275%
O=C(Nc1ccc2[nH]ccc2c1)c1ccccc1Nc1cccc(C(F)(F)F)c1 [CBK149583]	49.8008%
CNc1nc(NC(C#N)c2ccccc2)ncc1N (stereo not drawn) [CBK174783]	161.505%
CC1CCCC(C)N1S(=O)(=O)c1ccc(NS(=O)(=O)c2cccc(C(=O)O)c2)cc1 (stereo not drawn) [CBK296944]	129.547%
O=S(=O)(Nc1cc(F)cc(C(F)(F)F)c1)c1cc2c(N3CCNCC3)nccc2s1 [CBK038102C]	139.731%
CN1CCN(CC(O)COCc2ccc3c(c2)OCO3)CC1 (stereo not drawn) [CBK278260C]	100%
O=C(C1CCCO1)N1CCCC(c2cc3cccnc3[nH]2)C1 (stereo not drawn) [CBK284978]	94.412%
CN(C)C(=O)Cn1nc(-c2cc3c(s2)CCCC3)oc1=O [CBK283905]	131.848%
COc1cccc(C(=O)N2CCCC2c2cc3cccnc3[nH]2)c1 (stereo not drawn) [CBK285082]	127.534%

Looked up above.
% of control remaining, FC(F)(F)c1ccc(OCc2ccc(Cl)c(Cl)c2)nc1 [CBK115831] reads 219.985%
% of control remaining, COc1ccc(C(C)C)cc1-c1cncc(NCc2ccc3c(c2)OCO3)n1 [CBK065348] reads 106.004%

(list continues)

Compound	% of control remaining
O=C(COC(=O)c1cc(O)nc2ccccc12)c1ccccc1Cl [CBK265524]	100%
COc1ccc(NC(=O)CSc2nc3c(c(-c4cccs4)c2C#N)CN(C)CC3)cc1OC [CBK267444]	110.491%
CC(C)(C)OC(=O)N1CCC(c2cc(=O)n3c(n2)CCCCC3)C1 (stereo not drawn) [CBK283415]	109.113%
O=C(CSc1nc2ccccc2[nH]1)c1ccc2ccccc2c1 [CBK261739]	99.152%
COc1cc(CCc2cc(O)n3nc(-c4cccc(C)c4)c(C)c3n2)on1 [CBK285691]	155.815%
CC(C)(CN1CCOCC1)NC(=O)c1cnc2cc(C(F)(F)F)ccc2c1O [CBK107429]	109.711%
COc1ccccc1CCC(=O)Nc1cnc(-c2ccc(F)cc2)c(-c2ccco2)n1 [CBK037002]	129.29%
CCC(NC(=O)Cc1c(C)nc(SC)[nH]c1=O)c1ccc(F)cc1 (stereo not drawn) [CBK282653]	112.193%
COc1ccc(-n2nc3cc(C)c(NC(=S)NC(=O)/C=C/c4ccco4)cc3n2)cc1 [CBK264359]	100%
O=C(NCC1CCCO1)NC(=O)c1nsc2ccccc12 (stereo not drawn) [CBK019827]	87.9353%
O=C(Nc1ccccc1)N(O)CC(O)COc1ccccc1 (stereo not drawn) [CBK288399]	148.577%
CCOC(=O)CNC(=O)N1CCCC1c1nc(-c2ccccc2)c2ccccn12 (stereo not drawn) [CBK046502]	100.225%
Cc1c(C2CC(C(F)(F)F)n3nccc3N2)cnn1C (stereo not drawn) [CBK288015]	104.218%
COc1ccc(CCN2C(=O)CC(C(=O)O)S/C2=N\c2ccccc2)cc1 (stereo not drawn) [CBK286606]	121.174%
O=C(O)CC1c2ccccc2Oc2ccccc21 [CBK261836]	99.0626%
O=P(O)(CN1CCOCC1)CN1CCOCC1 [CBK260914]	94.9736%
CCOC(=O)N1CCC(NS(=O)(=O)Cc2ccccc2[N+](=O)[O-])CC1 [CBK045467]	61.2202%
COc1nccnc1N1CCN(CCc2ccccc2)CC1 [CBK084228]	114.995%
CCn1c(SCC(=O)Nc2ccc(C#N)cc2)nnc1-c1ccncc1 [CBK270102]	134.461%
